# Primary screen of a compound library

Sequences of proteins named here, by UniProt entry; tags and fusion partners are left off.
UniProt P9WFT3, whole entry: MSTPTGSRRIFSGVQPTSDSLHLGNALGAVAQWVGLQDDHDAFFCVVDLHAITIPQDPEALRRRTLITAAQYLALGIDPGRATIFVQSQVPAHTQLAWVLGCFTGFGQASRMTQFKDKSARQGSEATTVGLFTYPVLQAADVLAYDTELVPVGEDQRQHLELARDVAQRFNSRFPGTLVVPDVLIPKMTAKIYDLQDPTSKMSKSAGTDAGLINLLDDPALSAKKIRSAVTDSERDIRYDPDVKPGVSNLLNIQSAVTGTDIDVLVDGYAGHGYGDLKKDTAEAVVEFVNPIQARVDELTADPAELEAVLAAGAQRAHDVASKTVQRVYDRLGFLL

The filed quantity is “Percent Effect” (%).
How 0% and 100% were set is not recorded. Most values in the screen are low, and negative values occur.
This is an unselected part of the compounds tested.
Two or more numbers in one place are separate tests of the same structure; such repeats can differ widely.
A dash means the value is not listed here; it may have been measured.

Leishmania in macrophages: 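Cell assay of Leishmania donovani living inside macrophages; the read-out is not stated. Compounds at 30 µM. The record gives no direction; compounds that gave an IC50 in retests scored well above the rest, so higher reads as stronger inhibition. Of about 69,000 compounds tested this way, about 1,000 (1.5%) reached 50% or more in at least one test.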
MtTrpRS: 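Tryptophan-tRNA ligase, Mycobacterium tuberculosis (UniProt P9WFT3). Enzyme assay of tryptophanyl-tRNA synthetase; the read-out is not stated. Tested at 10 µM. Higher most likely means stronger inhibition; the record gives no direction and few retests gave an IC50. Size under these conditions: about 65,000 compounds, about 64 of them at 50% or above in at least one test.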
T. brucei: 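Whole-parasite assay of Trypanosoma brucei over 72 hours; the read-out is not stated. Concentration: 30 µM. Direction is inferred from retests: higher values go with stronger inhibition. Values scatter widely below zero; nearly all retest evidence comes from the higher of the two concentrations used. Size under these conditions: about 64,000 compounds, about 940 of them at 50% or above in at least one test.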

Compound,Leishmania in macrophages,MtTrpRS,T. brucei
Cc1ccc(CN(Cc2c[nH]cn2)C2CC(C)(C)NC(C)(C)C2)o1.O=C(O)CC(O)(CC(=O)O)C(=O)O,-3.854%,-,-6.621%
CC(C)c1cc(=O)[nH]c(-c2ccccc2CN2CCCC2C)n1 (stereo not shown),17.61%,8.75%,-20.79%
Cc1noc(C)c1-c1ccnc(C2CCNCC2)c1,1.861%,-3.765%,-7.028%
COCCCN(C)C(=O)Cn1cccc(OC)c1=O,-14.44%,1.956%,-46.77%
Cl.Cl.c1cn(-c2cnc(C3CCNCC3)cn2)cn1,-6.854% & 7.053%,-,-23.68%
CC(C)c1cc(NC(=O)c2ccc(C(=O)NC(C)(C)C)cc2)[nH]n1,58.67%,0.3997%,33.13%
CNC(=O)COc1cccc(CNC(=O)c2c(C)noc2C)c1,4.342%,0.9029%,-31.9%
CCc1nc(C2CCCN2Cc2nc(C(C)(C)C)no2)no1 (stereo not shown),2.528%,-5.617%,-47%
CCN(CC)C(=O)CCc1c(C)nc2cc(O)nn2c1C,7.422%,3.072%,-2.924%
CC1CN(Cc2ccccc2)CCCN1CCCS(C)(=O)=O (stereo not shown),21.89%,-0.2601%,-283.9%
Cc1cc(CNC(=O)c2cccs2)ccc1S(C)(=O)=O,14.35%,-4.15%,-23.42%
NC(=O)C1CCN(S(=O)(=O)c2cnn(-c3ccccc3)c2)CC1,68.11%,-2.794%,-24.73%
CC(C)c1nn(C)c(N(C)C)c1CNC1CCN(CC2CC2)CC1,7.137%,-0.2241%,-76.8%
CNC(=O)CN1CCCC12CCN(Cc1c[nH]cn1)CC2,-,2.49%,-
CCN1CCN(C(=O)c2scnc2C)CC1,22.65%,2.641%,-26.24%
COc1ccc(OC2CCN(Cc3ccn(C)c(=O)c3)CC2)cc1,9.05%,4.771%,-14.99%
CC(C)[C@H]1COC(=O)N1Cc1nccn1C1CC1,4.596%,-2.142%,-4.33%
Cc1ccc(C2CSCCN2C(=O)c2ccccn2)cc1 (stereo not shown),1.474%,-9.864%,-
CN(Cc1ccc(F)cc1)CC1(O)CCN(C(=O)c2ccccc2)C1 (stereo not shown),2.456%,-4.264%,-9.123%
CC(=O)N1CCN(Cc2c(C)sc3ccccc23)CC(O)C1 (stereo not shown),-4.029%,-0.8642%,-27.88%
O=C(NC1CCCC1)N1CCCCC1c1nc(C2CC2)no1 (stereo not shown),28.11%,-2.572%,-20.09%
N#CCSCCCN1CCN(C(=O)c2cccc(Cl)c2)CC1,-21.72%,1.472%,-18.02%
CCc1ccc2c(c1)C(CCNC(=O)CCc1ccsc1)C(=O)N2 (stereo not shown),7.084%,-2.807%,13.64%
Cc1nc(CN(C)C2CCN(Cc3ccc4ccccc4n3)C2)no1 (stereo not shown),32.34%,-0.07337%,99.64%
Cc1cn2nc(Sc3nnc(C(C)C)n3C)sc2n1,-0.8678%,1.493%,3.896%
c1ccc(C(Cn2cccn2)Nc2cnccn2)cc1 (stereo not shown),-5.595%,0.6265%,-5.595%
COC(CNC(=O)C1CCCC1)c1ccc(C)s1 (stereo not shown),5.886%,-2.472%,-17.2%
Cc1cc(C)c(CNC(=O)N2CCN(c3ccncc3)CC2)c(=O)[nH]1,5.199%,-3.016%,-
[H][C@@]12C[C@H](NC(=O)c3cc4nc(C)cc(C)n4n3)CN1CCN(C)C2,7.422%,-,-2.116%
CCSCC(C)NCc1nn(C)c2ccc(C)cc12 (stereo not shown),2.194%,1.09%,-28.39%
CCCS(=O)(=O)NCCc1ncc(C)s1,-41.66%,3.689%,-11.58%
Cc1ccnc(N2C[C@@H]3CC[C@H](C2)N(CC2CCC2)C3=O)n1,-,15.56%,-
Cn1ccnc1CCC1CCCCN1Cc1nccn1C (stereo not shown),36.39%,-5.276%,17.42%
CC(C)c1nc(CN2CCCC2c2cnn(C)c2)cs1 (stereo not shown),18.17%,-7.794%,-
CC(C)(C)c1n[nH]c(C2CN(C(=O)c3ccsc3)CCO2)n1 (stereo not shown),27.41%,2.45%,-16.39%
CCc1c(C(=O)O)nnn1-c1cc(C)cc(C)c1,3.587%,1.929%,-9.962%
Cc1nc2c(N3CCN(CCO)CC3)nc(N)nc2n1C,43.76%,3.155%,2.527%
CNc1nc(CNC(=O)Nc2cccc(CN(C)C)c2)cs1,28.84%,1.935%,-
COCc1csc(NC(=O)NCc2ncccc2C)n1,-2.089%,-3.936%,-39.63%
O=C1O[C@@H]2CN(S(=O)(=O)N3CCCC3)C[C@@H]2N1CCc1cccc(Cl)c1,-,5.416%,-
O=C(NCCn1cccc1)C1CCN(C2CCCCC2)CC1,4.569%,-2.221%,-27.79%
O=C(COC1CCCCC1)NS(=O)(=O)c1ccc2c(c1)OCCCO2,8.762%,6.541%,-24.91%
CCCc1noc(CN2CCOCC2C)n1 (stereo not shown),-25.75%,-0.000006%,-47.48%
Cc1nc(N)ncc1C(=O)N1CCCC(CCc2ccccc2F)C1 (stereo not shown),24.96%,27.88%,-9.951%
CC(=O)NCCOc1c(Cl)cccc1Cl,-10.5%,-2.8%,-96.29%
CCOCC1CN(Cc2cccc(C#N)c2)Cc2nccn2C1 (stereo not shown),-,-1.891%,-
CC(=O)c1c(C)nn(CC(=O)N2Cc3cnc(C(C)(C)C)nc3C2)c1C,12.24%,2.397%,-0.5986%
Cc1c(C(=O)NCC2CCS(=O)(=O)C2)cnn1-c1ccccc1 (stereo not shown),-5.688%,15.31%,-14.26%
COc1cccc(OCCc2nnc(NC(C)=O)s2)c1,-15.51%,-0.3886%,-15.53%
CC(C)c1cc(-c2nn3c(C(C)C)nnc3s2)[nH]n1,21.94%,-0.7236%,-
O=C(O)C(F)(F)F.[H][C@@]12CCN(Cc3ccoc3)C[C@@]1([H])O[C@H](C(=O)N1CCCC1)C2,43.13%,-,-72.28%
Cc1nc(CN2C[C@@H]3CN(C(=O)c4ccnnc4)C[C@@H]3C2=O)cs1,-,2.18%,-

The values are deposited in ChEMBL (CHEMBL3988442, “University of Dundee, Small-Polar-MMV Screening Library” (2021)).